Assay results: article PMC9585078
These are yes or no findings as the source states them, for the method shown. In cells and extracts the contact can be indirect. Some entries that bind do so weakly or less than the wild type. For some assays here: Where a sequence is shown, tags or fusion partners need not be part of it.

The chains behind the UniProt entries cited, without tags or fusion partners. Residues count along the entry.
UniProt P40189, residues 23-918: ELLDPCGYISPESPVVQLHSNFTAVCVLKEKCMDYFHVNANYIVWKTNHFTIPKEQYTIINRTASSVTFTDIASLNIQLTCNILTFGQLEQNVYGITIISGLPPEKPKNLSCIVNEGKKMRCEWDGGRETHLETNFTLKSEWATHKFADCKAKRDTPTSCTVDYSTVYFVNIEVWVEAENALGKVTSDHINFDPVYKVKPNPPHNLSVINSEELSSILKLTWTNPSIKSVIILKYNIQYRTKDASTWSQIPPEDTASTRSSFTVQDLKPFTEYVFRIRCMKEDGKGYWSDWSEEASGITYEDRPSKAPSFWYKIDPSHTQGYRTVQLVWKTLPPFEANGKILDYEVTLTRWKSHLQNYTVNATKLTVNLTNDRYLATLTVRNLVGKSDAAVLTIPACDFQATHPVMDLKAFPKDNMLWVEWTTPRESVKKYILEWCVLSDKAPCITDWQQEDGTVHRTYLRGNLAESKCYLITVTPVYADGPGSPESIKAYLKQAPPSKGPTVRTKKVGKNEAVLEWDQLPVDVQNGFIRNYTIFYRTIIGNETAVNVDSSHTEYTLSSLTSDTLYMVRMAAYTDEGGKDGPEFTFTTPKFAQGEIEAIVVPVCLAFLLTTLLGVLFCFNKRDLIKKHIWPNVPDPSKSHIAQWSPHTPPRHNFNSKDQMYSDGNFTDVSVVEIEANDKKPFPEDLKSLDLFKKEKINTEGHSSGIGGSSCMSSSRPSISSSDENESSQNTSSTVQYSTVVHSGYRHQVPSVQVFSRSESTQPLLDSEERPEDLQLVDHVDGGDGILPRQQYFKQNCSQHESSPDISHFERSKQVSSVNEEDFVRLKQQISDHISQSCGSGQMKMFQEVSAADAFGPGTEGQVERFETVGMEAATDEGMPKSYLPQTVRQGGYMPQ
UniProt Q00560, residues 23-917: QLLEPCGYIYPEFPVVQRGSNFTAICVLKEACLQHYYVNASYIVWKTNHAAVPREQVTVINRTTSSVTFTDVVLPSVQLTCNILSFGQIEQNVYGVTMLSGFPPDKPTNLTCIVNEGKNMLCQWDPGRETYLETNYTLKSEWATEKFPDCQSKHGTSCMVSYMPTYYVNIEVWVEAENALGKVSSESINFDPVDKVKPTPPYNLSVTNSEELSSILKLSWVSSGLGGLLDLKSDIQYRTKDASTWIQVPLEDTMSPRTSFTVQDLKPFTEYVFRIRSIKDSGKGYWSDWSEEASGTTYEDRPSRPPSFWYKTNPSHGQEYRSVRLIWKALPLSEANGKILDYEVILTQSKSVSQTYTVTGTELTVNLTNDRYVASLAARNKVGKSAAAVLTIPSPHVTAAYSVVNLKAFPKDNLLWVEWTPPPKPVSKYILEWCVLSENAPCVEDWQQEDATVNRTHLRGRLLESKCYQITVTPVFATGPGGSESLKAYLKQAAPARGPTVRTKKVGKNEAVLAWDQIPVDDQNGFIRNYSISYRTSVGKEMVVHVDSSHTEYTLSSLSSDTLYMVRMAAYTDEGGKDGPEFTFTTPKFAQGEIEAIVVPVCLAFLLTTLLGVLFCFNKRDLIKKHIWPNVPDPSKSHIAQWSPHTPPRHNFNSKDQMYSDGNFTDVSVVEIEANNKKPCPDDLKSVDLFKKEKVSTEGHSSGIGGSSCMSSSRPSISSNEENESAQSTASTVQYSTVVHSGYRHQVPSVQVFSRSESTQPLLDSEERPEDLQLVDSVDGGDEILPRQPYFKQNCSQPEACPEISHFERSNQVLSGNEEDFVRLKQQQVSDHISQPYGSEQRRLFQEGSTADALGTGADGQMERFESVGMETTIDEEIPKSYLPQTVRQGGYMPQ

Columns and labels:
[1] = molecular target: T1, FLAG-tagged PROM1 deletion mutant 1-812 (human) (UniProt O43490); test: co-IP; HEK 293 cells transfected for 48 h with FLAG-tagged PROM1 (full length, deletion mutants or PROM1^GPI-EX1) and GP130-His; reciprocal immunoprecipitation for the full-length pair; NP-40 lysates (25 mM HEPES, 150 mM NaCl, 1% NP-40), 4 °C; also after MβCD cholesterol depletion (interaction not changed)
T1 sequence: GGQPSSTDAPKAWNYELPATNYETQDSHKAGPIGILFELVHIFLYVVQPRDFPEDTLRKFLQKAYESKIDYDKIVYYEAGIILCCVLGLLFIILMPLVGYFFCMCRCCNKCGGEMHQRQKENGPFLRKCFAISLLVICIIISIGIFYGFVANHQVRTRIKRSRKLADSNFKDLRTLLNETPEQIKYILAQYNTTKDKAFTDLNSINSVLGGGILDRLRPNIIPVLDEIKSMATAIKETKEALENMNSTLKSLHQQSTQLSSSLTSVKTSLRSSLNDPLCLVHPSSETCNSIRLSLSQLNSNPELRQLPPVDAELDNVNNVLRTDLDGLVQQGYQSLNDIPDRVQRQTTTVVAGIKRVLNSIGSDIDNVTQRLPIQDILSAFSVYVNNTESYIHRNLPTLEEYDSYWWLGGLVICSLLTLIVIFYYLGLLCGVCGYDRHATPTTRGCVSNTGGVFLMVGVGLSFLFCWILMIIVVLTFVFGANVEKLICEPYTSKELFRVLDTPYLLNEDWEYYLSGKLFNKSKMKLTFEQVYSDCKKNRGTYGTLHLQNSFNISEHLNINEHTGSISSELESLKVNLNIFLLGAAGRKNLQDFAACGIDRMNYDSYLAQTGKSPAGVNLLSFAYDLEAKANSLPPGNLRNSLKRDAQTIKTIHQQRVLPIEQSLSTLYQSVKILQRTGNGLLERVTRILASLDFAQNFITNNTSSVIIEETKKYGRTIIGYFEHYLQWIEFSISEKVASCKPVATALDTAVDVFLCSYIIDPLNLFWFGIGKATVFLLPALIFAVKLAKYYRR

[2] = molecular target: T2, FLAG-tagged human PROM1 transcript variant 2, full length (1-856) (human) (UniProt O43490); test: as above
T2 sequence: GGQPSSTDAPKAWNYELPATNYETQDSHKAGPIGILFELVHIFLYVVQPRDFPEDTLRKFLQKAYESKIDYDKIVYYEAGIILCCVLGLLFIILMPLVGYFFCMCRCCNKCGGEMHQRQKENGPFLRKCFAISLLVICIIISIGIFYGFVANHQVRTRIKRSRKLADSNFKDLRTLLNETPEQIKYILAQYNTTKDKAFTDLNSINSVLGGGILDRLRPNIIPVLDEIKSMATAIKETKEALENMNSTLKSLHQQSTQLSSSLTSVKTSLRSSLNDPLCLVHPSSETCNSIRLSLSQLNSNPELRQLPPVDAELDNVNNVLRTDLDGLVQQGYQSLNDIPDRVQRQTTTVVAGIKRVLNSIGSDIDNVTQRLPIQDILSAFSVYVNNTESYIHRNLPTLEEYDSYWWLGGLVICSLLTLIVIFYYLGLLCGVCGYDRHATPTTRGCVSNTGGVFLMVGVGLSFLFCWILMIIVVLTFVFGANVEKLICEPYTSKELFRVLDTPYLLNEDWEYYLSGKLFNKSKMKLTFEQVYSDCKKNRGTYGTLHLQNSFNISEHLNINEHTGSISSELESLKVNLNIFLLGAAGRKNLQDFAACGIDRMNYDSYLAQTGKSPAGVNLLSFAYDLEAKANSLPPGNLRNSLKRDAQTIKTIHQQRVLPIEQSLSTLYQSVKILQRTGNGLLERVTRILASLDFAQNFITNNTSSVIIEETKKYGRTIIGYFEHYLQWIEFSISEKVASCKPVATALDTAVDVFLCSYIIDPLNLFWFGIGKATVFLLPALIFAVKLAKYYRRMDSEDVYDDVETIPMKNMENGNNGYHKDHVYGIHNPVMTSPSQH

[3] = molecular target: T3, FLAG-tagged PROM1 deletion mutant 1-133 (human) (UniProt O43490); test: as above
T3 sequence: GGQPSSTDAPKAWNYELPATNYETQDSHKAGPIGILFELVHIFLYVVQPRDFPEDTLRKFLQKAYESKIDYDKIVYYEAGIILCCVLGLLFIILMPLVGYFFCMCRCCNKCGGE

[4] = molecular target: T4, FLAG-tagged PROM1 deletion mutant 1-456 (human) (UniProt O43490); test: as above
T4 sequence: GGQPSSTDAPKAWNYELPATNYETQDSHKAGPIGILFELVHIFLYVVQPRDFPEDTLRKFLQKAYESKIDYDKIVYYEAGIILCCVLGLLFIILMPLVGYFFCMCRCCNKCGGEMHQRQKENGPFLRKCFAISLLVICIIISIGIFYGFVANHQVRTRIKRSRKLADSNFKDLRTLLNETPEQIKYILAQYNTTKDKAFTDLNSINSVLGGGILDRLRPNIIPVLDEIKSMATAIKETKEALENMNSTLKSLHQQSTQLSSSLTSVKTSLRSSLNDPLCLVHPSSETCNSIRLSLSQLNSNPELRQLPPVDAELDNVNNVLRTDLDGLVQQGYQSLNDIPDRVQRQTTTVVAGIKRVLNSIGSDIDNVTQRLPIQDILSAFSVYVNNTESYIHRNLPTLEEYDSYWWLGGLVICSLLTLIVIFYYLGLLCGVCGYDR

[5] = molecular target: T5, Prominin-1 (PROM1), endogenous, mouse liver (mouse (endogenous in liver)) (UniProt O54990); test: co-IP; immunoprecipitation with anti-PROM1 or normal IgG from wild-type mouse liver lysate 48 h after PHx; lysis and wash buffer 25 mM HEPES, 150 mM NaCl, 1% NP-40, 10 mM MgCl2, 1 mM EDTA, 2% glycerol; 4 °C; immunoblot for endogenous PROM1 and GP130
T5 sequence: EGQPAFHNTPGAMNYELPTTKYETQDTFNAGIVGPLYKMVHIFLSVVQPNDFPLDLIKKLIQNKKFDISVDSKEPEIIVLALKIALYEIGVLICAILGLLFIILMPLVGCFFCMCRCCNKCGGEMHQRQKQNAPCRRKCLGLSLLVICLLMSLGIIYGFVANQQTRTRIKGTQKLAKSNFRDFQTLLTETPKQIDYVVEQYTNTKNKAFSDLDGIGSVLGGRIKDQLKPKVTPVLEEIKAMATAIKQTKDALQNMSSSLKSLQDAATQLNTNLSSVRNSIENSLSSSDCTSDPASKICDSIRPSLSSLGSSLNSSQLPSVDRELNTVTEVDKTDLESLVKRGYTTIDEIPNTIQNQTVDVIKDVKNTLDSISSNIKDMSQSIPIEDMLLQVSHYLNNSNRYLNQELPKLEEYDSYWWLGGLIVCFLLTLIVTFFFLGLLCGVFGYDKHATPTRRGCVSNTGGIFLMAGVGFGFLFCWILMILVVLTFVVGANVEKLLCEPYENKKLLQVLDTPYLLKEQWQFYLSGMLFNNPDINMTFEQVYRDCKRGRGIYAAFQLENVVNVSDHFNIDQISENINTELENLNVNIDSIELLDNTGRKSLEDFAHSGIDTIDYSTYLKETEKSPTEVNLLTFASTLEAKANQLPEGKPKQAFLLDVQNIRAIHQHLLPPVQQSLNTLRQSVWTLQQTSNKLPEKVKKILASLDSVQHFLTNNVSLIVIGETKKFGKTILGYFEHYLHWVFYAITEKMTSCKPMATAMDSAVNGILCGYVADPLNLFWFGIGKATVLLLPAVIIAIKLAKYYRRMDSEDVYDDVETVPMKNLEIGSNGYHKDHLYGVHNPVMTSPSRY

| binding [1] | binding [2] | binding [3] | binding [4] | binding [5] | Substance |
| --- | --- | --- | --- | --- | --- |
| binds | binds | binds | binds | – | His-tagged GP130 (from UniProt P40189 23-918) (receptor) |
| – | – | – | – | binds | interleukin-6 signal transducer glycoprotein 130 (GP130), endogenous, mouse liver (from UniProt Q00560 23-917) (receptor) |
